Results are given in words; binding and its absence hold for the method and conditions named. Some results given as binding are weak or reduced against the parent protein; the word gives no strength.

The target in this assay is T1, TNKS1 SAM(E1050K)-CFP (human, UniProt O95271 1030-1089, E1050K).
T1 construct: human tankyrase 1 (TNKS1), sterile alpha-motif (SAM) domain; also called ML surface mutant of the TNKS1 SAM domain; source: E. coli BL21(DE3), purified (IMAC); not shown: mCerulean (CFP), C-terminal, kept
T1 sequence (looked up): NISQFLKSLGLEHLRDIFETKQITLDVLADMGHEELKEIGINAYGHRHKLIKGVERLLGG
The experiment in a line: FRET or BRET; ratiometric FRET (527 nm/477 nm on excitation at 410 nm): 250 nM CFP-fusion mixed with 500 nM YFP-fusion or YFP; assay buffer pH 7.0; 384-well plates, 4 replicates; both purified.

B1: TNKS1 SAM(Y1073A)-YFP (domain or fragment, human, UniProt O95271 1030-1089, looked up)
chain: NISQFLKSLGLEHLRDIFETEQITLDVLADMGHEELKEIGINAAGHRHKLIKGVERLLGG
notes: human tankyrase 1 (TNKS1), sterile alpha-motif (SAM) domain; also called EH surface mutant of the TNKS1 SAM domain; source: E. coli BL21(DE3), purified (IMAC); not shown: mCitrine (YFP), C-terminal, kept
In the case of B1, the binding result was “binds”.
